PubChem BioAssay AID651640 (Broad Institute, 2012)
Several values for one entry are separate records, joined by “and”; a condition that tells them apart may be missing. Equal entries are not always repeated. Out of some 350,000 compounds screened, about 6,000 (1.7%) were called active. The inconclusive results got no clear call from the source; some entries with a clear call stand among them for comparison. Cut-off read from the data, not from the text of the source: active = CPE inhibition above about 20% (passing the limit was not always enough); inconclusive = no clear call, values can overlap the other calls; tested in BHK-21 cells.

Assay: protection of cells from dengue 2 killing – plate reader, single concentration, primary screen (AID 651640);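 note: 0% = median of neutral control wells and 100% = median of positive control wells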
Conditions: DENV2-infected cells, cytopathic effect rescue, at 9.99 µM, hits give high values

| Compound | CPE inhibition |
| --- | --- |
| COc1ccccc1CNc1ncccn1 | inactive: 4.91% |
| NC(=O)CC(NC(=O)c1cccc(Br)c1)c1ccc(NCCN2CCOCC2)c([N+](=O)[O-])c1 (centres undefined) | active: 29.2% |
| O=C(C[C@H]1C=C[C@H](NC(=O)c2ccc(F)cc2)[C@@H](CO)O1)NCCc1ccccc1 | inconclusive: 23.3% |
| CO[C@H](CN(C)S(=O)(=O)c1cccc(Cl)c1)[C@H](C)CN([C@@H](C)CO)S(=O)(=O)c1cccc(Cl)c1 | inactive: -1.84% |
| CC(C)CN(C[C@@H]1N[C@@H](CO)[C@@H]1c1ccccc1)C(=O)CN(C)C | active: 40.1% |
| CO[C@H]1CN(C)C(=O)c2cc(NC(C)=O)ccc2OC[C@H](C)N(C(=O)c2ccccc2F)C[C@@H]1C | inconclusive: 26.6% |
| CCOC(=O)CSc1nnc(-c2cc(OC)c(OC)c(OC)c2)o1 | inactive: 1.51% |
| COc1ccccc1C(O)c1ncc(-c2ccccc2C)[nH]1 (centres undefined) | inconclusive: 27.9% |
| C=CCN(CC=C)C(=O)COn1nnc2ccc(S(=O)(=O)N3CCOCC3)cc21 | inconclusive: 28.2% |
| Cc1cc(O)c(Sc2ccc(Cl)cc2)c(=O)[nH]1 | inconclusive: 45.1% |
| N#C[C@@H]1[C@H](c2ccccc2C2=CCCCC2)[C@@H](CO)N1C(=O)c1ccccn1 | active: 26.7% |
| CCOc1ccccc1NC(=O)NC(=O)N(C)S(C)(=O)=O | inactive: -2.91% |
| O=C(CN1CCOCC1)NCc1ccccc1Cl | inconclusive: 53.2% |
| CN(C)C(=O)c1ccc(-c2ccc([C@H]3[C@@H](CO)N4CCCCN(C(=O)C5CCCC5)C[C@@H]34)cc2)cc1 | inactive: -1.1% |
| CSc1ncc(C(=O)Nc2ccccc2F)c(-c2ccccc2)n1 | inactive: 1.98% |
| CCOc1ccc(CN2CCN(CCCc3ccccc3)CC2CCO)cc1 (centres undefined) | active: 22% |
| O=C(Nc1cccc(Cl)c1)Nc1sccc1-c1nc2ccccc2s1 | active: 63.4% |
| CN[C@H]1C[C@H]2c3cc(N4CCN(C)CC4)ccc3CCN2C(=O)[C@H]1[C@H](C)O | inconclusive: 46.6% |
| CC(=O)c1cccc(-c2ccc3c(c2)C(C)(Cc2ccccc2F)C(=O)N3)c1 (centres undefined) | inconclusive: 37.8% |
| Cc1cnc(C(=O)NCc2ccc(F)cc2)cn1 | inconclusive: 33.4% |
| COc1cccc(NC(=O)N2CC(=O)N3[C@@H](CO)[C@@H](c4ccc(C#CCC5CCCC5)cc4)[C@@H]3C2)c1 | inactive: 0.577% |
| COc1ccccc1S(=O)(=O)N[C@H]1C=C[C@@H](CC(=O)NCc2cc(F)cc(F)c2)O[C@H]1CO | inconclusive: 27.3% |
| C[C@@H]1CN([C@H](C)CO)C(=O)c2cc(NC(=O)Nc3ccc(C(F)(F)F)cc3)ccc2O[C@H]1CN(C)Cc1ccncc1 | active: 32.8% |
| COC(=O)N(C)C[C@H]1OCc2ccccc2-c2ccccc2C(=O)N([C@@H](C)CO)C[C@@H]1C | inactive: -1.95% |
| CCCNC(=O)C[C@H]1C[C@H]2c3cc(NC(=O)c4ccc5c(c4)OCO5)ccc3O[C@H]2[C@H](CO)O1 | inconclusive: 31.4% |

| Compound | CPE inhibition |
| --- | --- |
| COc1cccc(CNC(=O)C2CCCN(C(=O)c3ccc(Cl)cc3)C2)c1 (centres undefined) | inconclusive: 30.8% |
| C[C@H](CO)N1C[C@H](C)[C@H](CN(C)Cc2cccnc2)Oc2cc(C#CC3CCCCC3)ccc2S1(=O)=O | inactive: -2.9% |
| C[C@H](CO)N1C[C@H](C)[C@@H](CN(C)C(=O)Nc2cccc3ccccc23)OCCCC[C@H](C)Oc2ccc(NS(=O)(=O)c3cn(C)cn3)cc2C1=O | inactive: -6.59% and inactive: -19.3% |
| CC(=O)Oc1ccc(C(=O)O)c(OC(C)=O)c1 | inconclusive: 43.4% |
| C[C@H](CO)N1C[C@H](C)[C@H](CN(C)C)Oc2cc(Br)ccc2S1(=O)=O | inconclusive: 32.5% |
| CCCn1c(N)c(Br)c(=O)[nH]c1=O | inconclusive: 55.1% |
| CC(C)n1c(SCC(=O)Nc2ccc(N3CCOCC3)cc2)nnc1-c1ccco1 | inactive: -4.61% |
| C[C@H]1CCC[C@]2(O[C@H](CCO)C[C@H](O)[C@H]2O)O1 | inactive: 5.85% |
| CCOC(=O)N1CCN(C(=O)C2CCC(=O)N(CCc3ccccc3)C2)CC1 (centres undefined) | inactive: -10% |
| CCCc1cc(Nc2ccccc2)n2ncnc2n1 | inconclusive: 40.2% |
| COc1ccc(OC)c(CCNC(=O)CCCc2nnc3n(C)c(=O)c4sccc4n23)c1 | inconclusive: 40.9% |
| COc1ccc(OC(=O)N(C)C[C@@H]2OCc3cn(nn3)CCCC(=O)N([C@H](C)CO)C[C@H]2C)cc1 | inactive: -9.99% and inactive: 17.5% |
| COC(=O)N1C[C@H](OCc2ccccc2)[C@H]2C[C@@H]1c1ccccc1O2 | inconclusive: 43% |
| C/C=C/c1ccc([C@H]2[C@H]3CN(C(=O)Nc4ccc(OC)cc4)CC(=O)N3[C@H]2CO)cc1 | inconclusive: 21.4% |
| O=C(C[C@@H]1CC[C@H](NC(=O)C2CCC2)[C@@H](CO)O1)NCc1ccccc1Cl | inconclusive: 22.2% |
| C[C@@H]1CN([C@H](C)CO)S(=O)(=O)c2ccc(C3=CCCC3)cc2O[C@@H]1CN(C)S(=O)(=O)c1cn(C)cn1 | inactive: 2.42% |
| C[C@@H]1CN([C@@H](C)CO)C(=O)c2cc(NC(=O)Cc3ccccc3)ccc2O[C@@H](C)CCCCO[C@H]1CN(C)C(=O)Nc1ccccc1 | inactive: 8.12% |
| COCCN(C(=O)COC(=O)c1ccc2c(c1)OCCO2)c1c(N)n(Cc2ccccc2)c(=O)[nH]c1=O | inconclusive: 68.6% |
| COC(=O)c1ccc(CNC(=O)COC(=O)/C=C/c2cccc(OC)c2)cc1 | inconclusive: 24.2% |
| C[C@@H]1CCCCO[C@@H](CN(C)C(=O)C2CCCCC2)[C@H](C)CN([C@@H](C)CO)C(=O)c2cc(NC(=O)Nc3ccccc3)ccc2O1 | inactive: -2.14% |
| CN(C(=O)CS(=O)(=O)c1cn(CC(=O)N2CCCCC2)c2ccccc12)c1ccccc1 | active: 63.6% |
| C[C@@H]1CN([C@H](C)CO)C(=O)c2cc(NC(=O)CCN3CCOCC3)ccc2O[C@@H]1CN(C)Cc1ccncc1 | inactive: 8.55% |
| CCn1c2c(n(C(C)=O)c1=O)C[C@@H](c1ccccc1)[C@@H](C)[C@@H](C(=O)N1CCCC1)C2 | active: 49.7% |
| C=CCN1Cc2ccccc2C[C@@]2(COC(c3ccc(OCCCO)cc3)=N2)C1=O | active: 23.7% |
| COc1ccc(NC(=O)N(C)C[C@H]2OCCCC[C@H](C)Oc3ccc(NC(=O)Nc4ccc5c(c4)OCO5)cc3C(=O)N([C@H](C)CO)C[C@@H]2C)cc1 | inactive: 3.67% |

| Compound | CPE inhibition |
| --- | --- |
| CC(C)C1COS(=O)(=O)NC1CC(=O)SC(C)(C)C (centres undefined) | inconclusive: 77.9% |
| Cc1ccnc(NC(=O)c2ccc(S(=O)(=O)N3CCC(C)CC3)cc2)c1 | inconclusive: 62.7% |
| Cc1ccc(S(=O)(=O)Nc2ccc(O)c3ncccc23)cc1 | active: 107% |
| C[C@@H]1CN([C@@H](C)CO)C(=O)CCCn2cc(nn2)CO[C@H]1CN(C)Cc1ccc2c(c1)OCCN2C | inconclusive: 38.2% |
| COc1cccc(C(C(=O)NC2CCCC2)N(C(=O)CNC(=O)c2ccco2)c2cccnc2)c1 (centres undefined) | inconclusive: 30.2% |
| O=C(c1ccccc1Cl)N1CCN(C(=O)C2CCCO2)CC1 (centres undefined) | inconclusive: 64.2% |
| CC(=O)N1[C@H](C(=O)N2CCCCC2)[C@@H](CO)[C@@H]2Cn3c(ccc(-c4ccccc4)c3=O)[C@@H]21 | active: 20.1% |
| CC(C)c1cn(CC[C@H]2CC[C@H](NC(=O)C3CCCCC3)[C@H](CO)O2)nn1 | inactive: -5.16% |
| Cc1ccc(S(=O)(=O)N(C)C[C@H]2OCCCC[C@H](C)Oc3ccc(NS(=O)(=O)c4cn(C)cn4)cc3C(=O)N([C@H](C)CO)C[C@@H]2C)cc1 | inconclusive: 26.6% |
| CCOC(=O)N1CCN(C(=O)CSc2nc(=O)n3cccc(C)c3n2)CC1 | inconclusive: 35.6% |
| Cn1c(=O)c2ccccc2n(CC(=O)NC2CCCCC2)c1=O | inactive: -2.17% |
| CCCn1nc2cc(C(=O)NCc3ccc4c(c3)OCO4)ccc2c1OCC | inactive: -2.1% |
| N#C/C(C(=O)N1CCCCC1)=C1/N=C(NC(=O)c2ccc(F)cc2)c2ccccc21 | inactive: -2.49% |
| COCCNC(=O)C[C@H]1C=C[C@@H](NC(=O)NC2CCCCC2)[C@H](CO)O1 | inactive: -3.71% |
| CCN1CCN(C(=O)c2cc(S(=O)(=O)N3CC(C)CC(C)C3)ccc2Cl)CC1 (centres undefined) | inactive: 0.497% |
| COc1ccccc1-c1ccccc1[C@H]1[C@H](C#N)N(C(=O)C2CCC2)[C@H]1CO | active: 50% |
| O=C(C[C@H]1CC[C@H](NS(=O)(=O)c2ccc(F)cc2)[C@@H](CO)O1)NC1CCCCC1 | inconclusive: 22.9% |
| O=C(CCN1CCOCC1)N1c2ccccc2Sc2ccc(Cl)cc21 | inconclusive: 43.5% |
| CCN(CC(=O)Nc1cc(Cl)ccc1OC)CC(=O)NC1CCS(=O)(=O)C1 (centres undefined) | inconclusive: 20.9% |
| CCOC(=O)C1CCN(C(=O)COC(=O)c2ccc([N+](=O)[O-])o2)CC1 | active: 76.3% |
| O=C(CN1CCCCC1)Nc1ccccc1-c1ccccc1 | inactive: -2.58% |
| C[C@@H]1CCCCO[C@@H](CN(C)C(=O)Nc2ccc(C(F)(F)F)cc2)[C@H](C)CN([C@H](C)CO)C(=O)c2cc(NS(=O)(=O)c3ccccc3)ccc2O1 | active: 38.4% |
| Cc1noc(C)c1NC(=O)Nc1ccc2c(c1)C(=O)N([C@@H](C)CO)C[C@H](C)[C@@H](CN(C)Cc1ccc3c(c1)OCO3)OCCCC[C@@H](C)O2 | inactive: -7.14% |
| O=C(C[C@H]1C[C@@H]2c3cc(NS(=O)(=O)c4ccccc4)ccc3O[C@@H]2[C@@H](CO)O1)N1CCCCC1 | inactive: -1.84% |

18 of the compounds above, tab-delimited.
Compound	CPE inhibition
Cc1ccnc(NC(=O)c2ccc(S(=O)(=O)N3CCC(C)CC3)cc2)c1	inconclusive: 62.7%
Cc1ccc(S(=O)(=O)Nc2ccc(O)c3ncccc23)cc1	active: 107%
C[C@@H]1CN([C@@H](C)CO)C(=O)CCCn2cc(nn2)CO[C@H]1CN(C)Cc1ccc2c(c1)OCCN2C	inconclusive: 38.2%
COc1cccc(C(C(=O)NC2CCCC2)N(C(=O)CNC(=O)c2ccco2)c2cccnc2)c1 (centres undefined)	inconclusive: 30.2%
O=C(c1ccccc1Cl)N1CCN(C(=O)C2CCCO2)CC1 (centres undefined)	inconclusive: 64.2%
CC(=O)N1[C@H](C(=O)N2CCCCC2)[C@@H](CO)[C@@H]2Cn3c(ccc(-c4ccccc4)c3=O)[C@@H]21	active: 20.1%
CC(C)c1cn(CC[C@H]2CC[C@H](NC(=O)C3CCCCC3)[C@H](CO)O2)nn1	inactive: -5.16%
Cc1ccc(S(=O)(=O)N(C)C[C@H]2OCCCC[C@H](C)Oc3ccc(NS(=O)(=O)c4cn(C)cn4)cc3C(=O)N([C@H](C)CO)C[C@@H]2C)cc1	inconclusive: 26.6%
CCOC(=O)N1CCN(C(=O)CSc2nc(=O)n3cccc(C)c3n2)CC1	inconclusive: 35.6%
Cn1c(=O)c2ccccc2n(CC(=O)NC2CCCCC2)c1=O	inactive: -2.17%
CCCn1nc2cc(C(=O)NCc3ccc4c(c3)OCO4)ccc2c1OCC	inactive: -2.1%
N#C/C(C(=O)N1CCCCC1)=C1/N=C(NC(=O)c2ccc(F)cc2)c2ccccc21	inactive: -2.49%
COCCNC(=O)C[C@H]1C=C[C@@H](NC(=O)NC2CCCCC2)[C@H](CO)O1	inactive: -3.71%
CCN1CCN(C(=O)c2cc(S(=O)(=O)N3CC(C)CC(C)C3)ccc2Cl)CC1 (centres undefined)	inactive: 0.497%
COc1ccccc1-c1ccccc1[C@H]1[C@H](C#N)N(C(=O)C2CCC2)[C@H]1CO	active: 50%
O=C(C[C@H]1CC[C@H](NS(=O)(=O)c2ccc(F)cc2)[C@@H](CO)O1)NC1CCCCC1	inconclusive: 22.9%
O=C(CCN1CCOCC1)N1c2ccccc2Sc2ccc(Cl)cc21	inconclusive: 43.5%
CCN(CC(=O)Nc1cc(Cl)ccc1OC)CC(=O)NC1CCS(=O)(=O)C1 (centres undefined)	inconclusive: 20.9%

Part of the list above, comma-delimited.
Compound,CPE inhibition
CC(=O)Oc1ccc(C(=O)O)c(OC(C)=O)c1,inconclusive: 43.4%
C[C@@H]1CN([C@H](C)CO)C(=O)c2cc(NC(=O)CCN3CCOCC3)ccc2O[C@@H]1CN(C)Cc1ccncc1,inactive: 8.55%
